Where two headings read alike, the source gives them in different places. Construct, isoform or probe ends are uncertain for at least one entry. The comparison behind a weaker result is the experiment's own reference, which may not be listed here. At least one verdict was read from the data and is not stated in words by the source.

For the series, the system named is Fy-1 (TBCK) + Fy-2 (PPP1R21) + Fy-3 (C12orf4) + Fy-4 (CRYZL1) + Fy-5 (GATD1). The experiment in a line: EMSA. For orientation: In EMSA bound probe runs differently from free probe, usually more slowly.

With “GGGAUGGGCGUCCUGGCCGCAGCGGCGCGCUGCCUGGUCCGGGGUGCGGACCGAAUGAGCAAGUGGACGAGCAAGCGGGGCCCGCGCAGCUUCAGGGGCCGCAAGGGCCGGGGCGCCAAGGGCAUCGGCUUCCUCACCUCGGGCUGGAGGUUCGUGCAGAUCAAGGAGAUGGUCCCGGAGUUCGUCGUCCCGGAUCUGACCGGCUUCAAGCUCAAGCCCUACGUGAGCUACCUCGCCCCUGAGAGCGAGGAGACGCCCCUGACGGCCGCGCAGCUCUUCAGCGAAGCCGUGGCGCCUGCCAUCGAAAAGGACUUCAAGGACGGUACCUUCGACCCUGACAACCUGGAAAAGUACGGCUUCGAGCCCACACAGGAGGGAAAGCUCUUCCAGCUCUACCCCAGGAACUUCCUGCGCUAGGCGGCCGC [mrpl41 orf]”, the binding result was “binds more weakly”.
Take “GGGAGUAGUUCCGCUUCCUGUCCGACUGUGGUGUCUUUGCUGAGGGUCACAUUGAGCUGCAGGUUGAAUCCGGGGUGCCUUUAGGAUUCAGCACCAUGGCGGAAGACAUGGAGACCAAAAUCAAGAACUACAAGACCGCCCCUUUUGACAGCCGCUUCCCCAACCAGAACCAGACUAGAAACUGCUGGCAGAACUACCUGGACUUCCACCGCUGUCAGAAGGCAAUGACCGCUAAAGGAGGCGAUAUCUCUGUGUGCGAAUGGUACCAGCGUGUGUACCAGUCCCUCUGCCCCACAUCCUGGGUCACAGACUGGGAUGAGCAACGGGCUGAAGGCACGUUUCCCGGGAAGAUCUGAACUGGCUGCAUCUCCCUUUCCUCUGUCCUCCAUCCUUCUCCCAGGAUGGUGAAGGGGGACCUGGUACCCAGUGAUCCCCACCCCAGGAUCCUAAAUCAUGACUUACCUGCUAAUAAAAACUCAUUGGAAAAGUGAAAAAAAAAAAAAAAAAAAAAAAAAAAAAAAAAAAAAAAAAAAAAAAAAAAGCGGCCGC [cox6b mRNA (full+50A)]”: for the setting “FERRY/RNA ratio 5”, the binding result is listed as “binds more weakly”.
Still for that read-out and setting: in the case of “GGGAUUUUGGCUUCCUGACCUUGGGCUACGGCUGACCGUUUUUUGUGGUGUACUCCGUGCCAUCAUGUCCGUCCUGACGCCGCUGCUGCUGCGGGGCUUGACAGGCUCGGCCCGGCGGCUCCCAGUGCCGCGCGCCAAGAUCCAUUCGUUGCCGCCGGAGGGGAAGCUUGGGAUCAUGGAAUUGGCCGUUGGGCUUACCUCCUGCUUCGUGACCUUCCUCCUGCCAGCGGGCUGGAUCCUGUCACACCUGGAGACCUACAGGAGGCCAGAGUGAAGGGGUCCGUUCUGUCCCUCACACUGUGACCUGACCAGCCCCACCGGCCCAUCCUGGUCAUGUUACUGCAUUUGUGGCCGGCCUCCCCUGGAUCAUGUCAUUCAAUUCCAGUCACCUCUUCUGCAAUCAUGACCUCUUGAUGUCUCCAUGGUGACCUCCUUGGGGGUCACUGACCCUGCUUGGUGGGGUCCCCCUUGUAACAAUAAAAUCUAUUUAAACUUUAAAAAAAAAAAAAAAAAAAAAAAAAAAAAAAAAAAAAAAAAAAAAAAAAAAGCGGCCGC [cox8a mRNA (full+50A)]” it was “binds more weakly”.
For the sequence “GGGUGCUCUGUGGGAGGGACUUUGCUGAUUUCCCCUCUUCCCUUCAACAUGAAAAUAUAUACCCCCCCAUGCAGUCUAAAAUGCUUCAGUACUUGUGAAACACAGCUGUUCUUCUGUUCUGCAGACACGCCUUCCCCUCAGCCACACCCAGGCACUUAAGCACAAGCAGAGUGCACAGCUGUCCACUGGGCCAUUGUGGUGUGAGCUUCAGAUGGUGAAGCAUUCUCCCCAGUGUAUGUCUUGUAUCCGAUAUCUAACGCUUUAAAUGGCUACUUUGGUUUCUGUCUGUAAGUUAAGACCUUGGAUGUGGUUUAAUUGUUUGUCCUCAAAAGGAAUAAAACUUUUCUGCUGAUAAGAUAGCCACAGCUGAUUCUCAUUUUCUUUUAAAAAAAAAAAAAAAAAAAAAAAAAAAAAAAAAAAAAAAAAAAAAAAAAAGCGGCCGC [uchl1 3'UTR-50A]”, the binding result was “binds more weakly”.

The values are drawn from paper doi:10.1101/2021.06.20.449167 (bioRxiv, 2021).
